Data published in the supplement of paper PMC10849652.
The list shows a part of the results.

Amino acid sequences for entries named in this document (tags omitted). A change or cut given only in a name is not applied to a line headed by its entry.
UniProt Q96IJ6: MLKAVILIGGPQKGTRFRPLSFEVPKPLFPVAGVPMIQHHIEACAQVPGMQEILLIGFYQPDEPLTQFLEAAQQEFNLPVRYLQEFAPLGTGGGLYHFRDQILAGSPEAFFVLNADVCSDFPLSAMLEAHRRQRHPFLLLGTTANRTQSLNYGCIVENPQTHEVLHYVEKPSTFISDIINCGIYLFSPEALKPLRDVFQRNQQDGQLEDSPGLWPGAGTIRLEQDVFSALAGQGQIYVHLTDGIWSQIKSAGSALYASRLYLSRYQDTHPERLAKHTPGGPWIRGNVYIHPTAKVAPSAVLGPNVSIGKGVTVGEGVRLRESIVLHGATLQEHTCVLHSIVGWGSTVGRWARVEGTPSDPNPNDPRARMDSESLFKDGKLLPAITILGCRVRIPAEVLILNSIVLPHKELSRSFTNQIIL
UniProt P17174: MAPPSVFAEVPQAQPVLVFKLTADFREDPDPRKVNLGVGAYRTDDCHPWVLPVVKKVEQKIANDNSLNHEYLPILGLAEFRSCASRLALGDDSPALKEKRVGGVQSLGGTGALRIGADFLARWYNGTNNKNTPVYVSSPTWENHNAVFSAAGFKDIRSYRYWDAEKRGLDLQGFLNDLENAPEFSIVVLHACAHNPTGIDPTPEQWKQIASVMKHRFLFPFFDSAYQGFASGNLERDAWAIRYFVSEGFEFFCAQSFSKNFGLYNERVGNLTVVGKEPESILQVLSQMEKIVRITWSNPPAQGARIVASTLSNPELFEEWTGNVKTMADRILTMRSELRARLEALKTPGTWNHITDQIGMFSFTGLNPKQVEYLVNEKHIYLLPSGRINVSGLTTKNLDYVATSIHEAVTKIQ
UniProt P36959: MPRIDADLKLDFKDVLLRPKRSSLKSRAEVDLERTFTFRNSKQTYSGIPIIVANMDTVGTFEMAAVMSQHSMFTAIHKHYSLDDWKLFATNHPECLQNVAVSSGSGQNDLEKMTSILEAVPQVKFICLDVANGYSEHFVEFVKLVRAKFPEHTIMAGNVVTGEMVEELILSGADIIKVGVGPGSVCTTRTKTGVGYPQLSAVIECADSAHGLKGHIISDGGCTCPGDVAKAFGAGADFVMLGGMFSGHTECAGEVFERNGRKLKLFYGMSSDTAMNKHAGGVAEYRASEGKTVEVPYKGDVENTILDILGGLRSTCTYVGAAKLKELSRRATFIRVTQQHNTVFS
UniProt Q3T906: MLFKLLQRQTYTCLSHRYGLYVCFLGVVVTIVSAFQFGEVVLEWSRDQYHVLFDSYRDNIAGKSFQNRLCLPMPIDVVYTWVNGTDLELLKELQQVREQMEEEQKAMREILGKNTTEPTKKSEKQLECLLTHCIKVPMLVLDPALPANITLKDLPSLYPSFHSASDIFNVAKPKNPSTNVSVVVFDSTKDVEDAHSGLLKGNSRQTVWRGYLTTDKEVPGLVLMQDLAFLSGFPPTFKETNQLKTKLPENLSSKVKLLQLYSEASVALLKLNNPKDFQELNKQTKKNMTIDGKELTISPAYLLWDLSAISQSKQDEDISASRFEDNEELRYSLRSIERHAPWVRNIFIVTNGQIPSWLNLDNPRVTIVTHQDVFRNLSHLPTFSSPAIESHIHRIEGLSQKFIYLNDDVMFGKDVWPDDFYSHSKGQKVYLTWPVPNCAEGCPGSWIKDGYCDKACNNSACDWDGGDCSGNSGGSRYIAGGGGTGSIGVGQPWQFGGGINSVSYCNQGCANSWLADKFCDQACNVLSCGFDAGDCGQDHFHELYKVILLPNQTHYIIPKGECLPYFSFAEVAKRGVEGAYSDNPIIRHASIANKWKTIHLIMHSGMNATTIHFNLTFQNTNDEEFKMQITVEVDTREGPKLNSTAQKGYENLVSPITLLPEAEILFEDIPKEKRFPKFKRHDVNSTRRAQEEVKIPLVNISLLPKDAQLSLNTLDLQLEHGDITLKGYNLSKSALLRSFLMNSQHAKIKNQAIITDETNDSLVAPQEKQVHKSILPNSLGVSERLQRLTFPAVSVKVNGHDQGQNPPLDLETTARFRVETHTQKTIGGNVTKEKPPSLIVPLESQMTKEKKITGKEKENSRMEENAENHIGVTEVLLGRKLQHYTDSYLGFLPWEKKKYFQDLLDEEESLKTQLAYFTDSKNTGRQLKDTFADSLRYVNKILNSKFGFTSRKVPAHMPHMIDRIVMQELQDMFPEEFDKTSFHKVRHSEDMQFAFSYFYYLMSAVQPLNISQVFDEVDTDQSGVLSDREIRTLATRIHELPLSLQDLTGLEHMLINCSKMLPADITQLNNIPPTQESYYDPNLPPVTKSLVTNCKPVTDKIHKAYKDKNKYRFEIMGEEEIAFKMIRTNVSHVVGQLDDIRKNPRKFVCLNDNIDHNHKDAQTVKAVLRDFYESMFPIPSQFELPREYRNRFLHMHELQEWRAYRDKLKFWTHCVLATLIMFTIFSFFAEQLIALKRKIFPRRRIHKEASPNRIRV
UniProt P00505: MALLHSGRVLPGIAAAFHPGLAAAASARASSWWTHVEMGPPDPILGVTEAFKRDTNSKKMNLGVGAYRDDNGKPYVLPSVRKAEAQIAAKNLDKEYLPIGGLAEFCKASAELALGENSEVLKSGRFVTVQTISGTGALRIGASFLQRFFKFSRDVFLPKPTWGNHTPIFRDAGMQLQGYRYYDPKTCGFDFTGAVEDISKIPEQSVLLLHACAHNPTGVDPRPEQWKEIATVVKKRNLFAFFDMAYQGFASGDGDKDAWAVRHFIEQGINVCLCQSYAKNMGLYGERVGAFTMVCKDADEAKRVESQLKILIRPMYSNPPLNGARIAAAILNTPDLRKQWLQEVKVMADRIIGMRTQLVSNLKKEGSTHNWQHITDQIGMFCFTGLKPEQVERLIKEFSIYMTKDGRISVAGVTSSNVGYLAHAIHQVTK
UniProt O15228: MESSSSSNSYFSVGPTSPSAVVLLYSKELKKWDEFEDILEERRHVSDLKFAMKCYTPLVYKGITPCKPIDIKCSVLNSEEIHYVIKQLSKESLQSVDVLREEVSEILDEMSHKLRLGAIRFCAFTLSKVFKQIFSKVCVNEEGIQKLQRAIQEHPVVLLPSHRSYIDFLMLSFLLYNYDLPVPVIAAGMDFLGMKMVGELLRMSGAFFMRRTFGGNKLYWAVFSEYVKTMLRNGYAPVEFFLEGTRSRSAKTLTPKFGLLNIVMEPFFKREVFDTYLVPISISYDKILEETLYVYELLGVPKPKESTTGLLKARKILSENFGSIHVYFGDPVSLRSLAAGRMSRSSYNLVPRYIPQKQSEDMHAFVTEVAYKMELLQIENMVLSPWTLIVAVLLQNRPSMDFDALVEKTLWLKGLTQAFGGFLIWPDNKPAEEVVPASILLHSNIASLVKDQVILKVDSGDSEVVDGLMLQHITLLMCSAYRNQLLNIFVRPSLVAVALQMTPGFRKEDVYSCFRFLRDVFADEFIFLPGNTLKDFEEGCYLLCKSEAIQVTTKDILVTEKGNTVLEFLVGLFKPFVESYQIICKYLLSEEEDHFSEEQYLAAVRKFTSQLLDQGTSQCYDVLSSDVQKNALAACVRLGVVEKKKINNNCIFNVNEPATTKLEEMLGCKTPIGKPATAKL
UniProt Q5JWF2, whole entry, looked up: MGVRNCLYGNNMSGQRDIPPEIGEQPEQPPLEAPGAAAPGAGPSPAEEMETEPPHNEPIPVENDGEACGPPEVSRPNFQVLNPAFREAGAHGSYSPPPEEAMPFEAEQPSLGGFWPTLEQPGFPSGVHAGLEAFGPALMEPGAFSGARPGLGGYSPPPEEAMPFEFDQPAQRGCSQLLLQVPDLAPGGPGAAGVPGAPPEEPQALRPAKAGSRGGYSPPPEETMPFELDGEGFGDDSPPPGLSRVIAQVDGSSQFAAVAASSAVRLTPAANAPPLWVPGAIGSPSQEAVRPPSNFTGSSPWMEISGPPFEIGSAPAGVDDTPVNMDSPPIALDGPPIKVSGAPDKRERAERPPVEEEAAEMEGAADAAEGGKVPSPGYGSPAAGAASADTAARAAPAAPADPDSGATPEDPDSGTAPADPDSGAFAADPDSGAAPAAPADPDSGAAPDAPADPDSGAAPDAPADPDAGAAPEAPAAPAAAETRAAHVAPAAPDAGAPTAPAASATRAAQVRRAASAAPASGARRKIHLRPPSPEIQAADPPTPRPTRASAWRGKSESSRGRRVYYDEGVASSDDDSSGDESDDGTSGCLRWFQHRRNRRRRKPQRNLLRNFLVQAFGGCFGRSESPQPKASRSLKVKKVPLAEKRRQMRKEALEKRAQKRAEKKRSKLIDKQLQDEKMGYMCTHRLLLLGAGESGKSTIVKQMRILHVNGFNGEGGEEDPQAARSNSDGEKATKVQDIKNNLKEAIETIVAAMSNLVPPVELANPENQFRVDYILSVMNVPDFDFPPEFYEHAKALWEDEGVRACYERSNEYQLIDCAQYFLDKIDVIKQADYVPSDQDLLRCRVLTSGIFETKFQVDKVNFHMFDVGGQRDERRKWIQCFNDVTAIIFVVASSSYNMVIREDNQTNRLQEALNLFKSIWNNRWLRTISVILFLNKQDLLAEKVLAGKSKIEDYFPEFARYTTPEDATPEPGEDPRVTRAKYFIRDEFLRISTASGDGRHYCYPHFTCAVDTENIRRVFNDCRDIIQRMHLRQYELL
UniProt P28799: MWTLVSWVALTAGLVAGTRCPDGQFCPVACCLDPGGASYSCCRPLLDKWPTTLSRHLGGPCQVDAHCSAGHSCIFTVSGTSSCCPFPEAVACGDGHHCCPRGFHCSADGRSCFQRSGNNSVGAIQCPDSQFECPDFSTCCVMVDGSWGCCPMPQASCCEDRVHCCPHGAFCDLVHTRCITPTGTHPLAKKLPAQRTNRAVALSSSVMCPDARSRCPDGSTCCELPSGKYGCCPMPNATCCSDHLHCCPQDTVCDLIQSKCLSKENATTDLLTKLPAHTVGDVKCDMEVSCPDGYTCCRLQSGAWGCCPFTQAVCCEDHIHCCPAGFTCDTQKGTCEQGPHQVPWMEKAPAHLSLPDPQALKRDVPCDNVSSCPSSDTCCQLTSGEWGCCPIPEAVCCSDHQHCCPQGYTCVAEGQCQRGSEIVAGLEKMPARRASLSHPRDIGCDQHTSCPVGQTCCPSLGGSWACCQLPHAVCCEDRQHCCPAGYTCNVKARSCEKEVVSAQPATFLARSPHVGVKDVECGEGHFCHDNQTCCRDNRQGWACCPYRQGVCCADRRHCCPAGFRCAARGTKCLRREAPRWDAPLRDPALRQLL
UniProt Q6Y7W6: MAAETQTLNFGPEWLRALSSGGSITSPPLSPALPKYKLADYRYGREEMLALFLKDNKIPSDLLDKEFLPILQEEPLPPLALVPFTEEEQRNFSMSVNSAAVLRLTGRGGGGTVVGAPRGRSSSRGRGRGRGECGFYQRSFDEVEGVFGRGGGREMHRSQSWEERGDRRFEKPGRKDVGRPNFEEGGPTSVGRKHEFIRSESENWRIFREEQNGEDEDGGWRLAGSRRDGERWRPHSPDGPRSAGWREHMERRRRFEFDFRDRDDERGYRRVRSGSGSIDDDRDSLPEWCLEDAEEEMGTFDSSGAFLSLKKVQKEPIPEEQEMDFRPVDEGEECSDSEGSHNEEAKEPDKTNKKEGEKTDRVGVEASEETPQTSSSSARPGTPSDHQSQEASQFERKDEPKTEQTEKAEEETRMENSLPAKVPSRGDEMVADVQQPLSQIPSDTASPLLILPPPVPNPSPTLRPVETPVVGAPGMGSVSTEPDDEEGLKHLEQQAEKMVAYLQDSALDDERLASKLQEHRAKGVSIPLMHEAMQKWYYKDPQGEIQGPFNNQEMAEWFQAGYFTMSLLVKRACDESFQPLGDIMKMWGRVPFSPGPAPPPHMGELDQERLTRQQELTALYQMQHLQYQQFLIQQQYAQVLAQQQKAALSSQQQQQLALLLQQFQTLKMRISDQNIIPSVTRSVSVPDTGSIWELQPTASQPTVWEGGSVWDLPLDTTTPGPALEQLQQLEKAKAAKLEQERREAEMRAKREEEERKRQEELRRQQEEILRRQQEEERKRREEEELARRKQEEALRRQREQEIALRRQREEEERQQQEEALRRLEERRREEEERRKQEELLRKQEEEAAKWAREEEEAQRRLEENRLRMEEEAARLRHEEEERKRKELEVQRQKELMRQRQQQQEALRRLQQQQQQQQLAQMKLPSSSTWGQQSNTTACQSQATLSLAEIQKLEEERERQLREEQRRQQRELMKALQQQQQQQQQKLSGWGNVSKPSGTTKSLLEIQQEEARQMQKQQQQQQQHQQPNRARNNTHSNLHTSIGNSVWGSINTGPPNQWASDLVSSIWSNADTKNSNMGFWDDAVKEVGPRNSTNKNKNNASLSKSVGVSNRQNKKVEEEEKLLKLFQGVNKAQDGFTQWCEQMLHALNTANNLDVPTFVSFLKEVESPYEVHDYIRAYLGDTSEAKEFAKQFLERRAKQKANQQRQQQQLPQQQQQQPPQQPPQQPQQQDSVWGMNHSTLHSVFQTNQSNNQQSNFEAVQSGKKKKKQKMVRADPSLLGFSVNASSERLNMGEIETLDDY

Key:
Assay in all cases: log2 fold change, soluble protein after heating vs DMSO (PISA); higher = thermal stabilisation; K562 cells, 10 uM, 30 min; active = over 0.2 and 3.5 SD of the protein, either way, in both replicates (recomputed)
[1] = compound: CC1=C(C=C(C=C1)NC(=O)C2=CC(=CC=C2)C(C)(C)C#N)NC3=CC4=C(C=C3)N=CN(C4=O)C
How it was run: (§1)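 Thermal stability values are relative to control samples and come from duplicates. They are expressed as log2 fold changes. For measurement, K562 cells (2×10^6 cells/mL) received 10 μM compound for 30 min, and aliquots were heated for 3 min over 48°C-58°C, pooled, and extracted at 4°C in PBS with 0.5% NP-40. Soluble protein, the supernatant after 21,000xg for 90 min, was quantified by TMTpro 16plex LC-MS/MS with equalised channel sums.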

[2] = compound: CC1=C(C=C(C=C1)NC(=O)C2=CC(=CC=C2)N(C)C)NC(=O)C3=CC=C(C=C3)O
How it was run: as §1

[3] = compound: CC1=CC=C(C=C1)SC2=C3C=C(SC3=CN=C2)C(=O)N
How it was run: as §1

[4] = compound: CC1=NC(=CC=C1)C2=C(N=C(N2)C(C)(C)C)C3=CC4=NC=CN=C4C=C3
How it was run: as §1

[5] = compound: CCCCN(Cc1ccc(C(=O)NO)cc1)C(=O)Nc1ccccc1 [Nexturastat A]
How it was run: as §1

[6] = compound: CCCS(=O)(=O)Nc1ccc(F)c(C(=O)c2c[nH]c3ncc(-c4ccc(Cl)cc4)cc23)c1F [vemurafenib]
How it was run: as §1

[7] = compound: CCCS(=O)(=O)Nc1ccc(F)c(C(=O)c2c[nH]c3ncc(Cl)cc23)c1F
How it was run: as §1

[8] = compound: CCCc1cc(C)[nH]c(=O)c1CNC(=O)c1cc(-c2ccnc(N3CCN(C)CC3)c2)cc2c1cnn2C(C)C
How it was run: as §1

[9] = compound: CCN(CC)Cc1ccc2cc(COC(=O)Nc3ccc(C(=O)NO)cc3)ccc2c1 [givinostat]
How it was run: as §1

[10] = compound: CCN(CCCOc1ccc2c(Nc3cc(CC(=O)Nc4cccc(F)c4)[nH]n3)ncnc2c1)CCOP(=O)(O)O [barasertib]
How it was run: as §1

[11] = compound: CC[C@@H]1C(=O)N(C)c2cnc(Nc3ccc(C(=O)NC4CCN(C)CC4)cc3OC)nc2N1C1CCCC1
How it was run: as §1

[12] = compound: CC[C@@H]1C(=O)N(C)c2cnc(Nc3ccc(C(=O)N[C@H]4CC[C@H](N5CCN(CC6CC6)CC5)CC4)cc3OC)nc2N1C(C)C [volasertib]
How it was run: as §1

[13] = compound: CC[C@H](C)N1C=C(C2=C(C=C(C=C21)C3=CN=C(C=C3)N4CCNCC4)C(=O)NCC5=C(C=C(NC5=O)C)C)C
How it was run: as §1

[14] = compound: CC[C@H](C)[C@@H](C(=O)N[C@@H]([C@@H](C)O)C(=O)N[C@@H](CC(C)C)C(=O)[C@]1(CO1)C)NC(=O)[C@H]([C@@H](C)CC)N(C)C(=O)C [epoxomicin]
How it was run: as §1

[15] = compound: CCn1c(C(=O)N(C2CC2)C2CC2)cc2c3c(ncn3C)c(Nc3cc(C)n(C)n3)nc21
How it was run: as §1

[16] = compound: CCn1cc(-c2ccnc3[nH]c(-c4cccc(CN(C)C)c4)cc23)c(-c2ccc(NC(=O)N(C)C)cc2)n1
How it was run: as §1

[17] = compound: CN(C)CC(=O)Nc1ccc2[nH]c(=O)c3ccccc3c2c1
How it was run: as §1

[18] = compound: CN(CCOC1=CC=C(C=C1)C[C@H]2C(=O)NC(=O)S2)C3=CC=CC=N3 (racemic) [rosiglitazone]
How it was run: as §1

[19] = compound: CN1C2=C(C3=C1C(=O)N(N=C3)CC4=CC(=CC=C4)N)SC(=C2)S(=O)C
How it was run: as §1

[20] = compound: CN1CCC(CNc2ccc3ncc(-c4cccc(OC(F)(F)F)c4)n3n2)CC1
How it was run: as §1

Row | Target | log2 fold change [1] | log2 fold change [2] | log2 fold change [3] | log2 fold change [4] | log2 fold change [5] | log2 fold change [6] | log2 fold change [7] | log2 fold change [8] | log2 fold change [9] | log2 fold change [10] | log2 fold change [11] | log2 fold change [12] | log2 fold change [13] | log2 fold change [14] | log2 fold change [15] | log2 fold change [16] | log2 fold change [17] | log2 fold change [18] | log2 fold change [19] | log2 fold change [20]
1 | GMPPA (UniProt Q96IJ6) | inactive: -0.013 | inactive: -0.014 | inactive: 0.09 | inactive: 0.025 | inactive: -0.064 | inactive: 0.028 | inactive: 0.064 | inactive: -0.025 | inactive: -0.011 | inactive: 0.022 | inactive: -0.025 | inactive: -0.031 | inactive: -0.019 | inactive: 0.016 | inactive: -0.009 | inactive: -0.045 | inactive: 0.004 | inactive: 0.039 | inactive: -0.055 | inactive: -0.01
2 | GOT1 (UniProt P17174) | inactive: -0.024 | inactive: 0.018 | inactive: 0.008 | inactive: 0.009 | inactive: -0.032 | inactive: 0.003 | inactive: -0.025 | inactive: 0.002 | inactive: 0.017 | inactive: 0.007 | inactive: 0.024 | inactive: 0.071 | inactive: -0.033 | inactive: 0.041 | inactive: 0.02 | inactive: 0.01 | inactive: -0.011 | inactive: 0.002 | inactive: -0.052 | inactive: -0.035
3 | GOLGA2 (UniProt Q08379) | inactive: -0.077 | inactive: 0.011 | inactive: -0.098 | inactive: -0.053 | inactive: 0.121 | inactive: 0.003 | inactive: -0.065 | inactive: 0.107 | inactive: 0.039 | inactive: 0.013 | inactive: 0.051 | inactive: -0.157 | inactive: 0.03 | inactive: -0.098 | inactive: 0.01 | inactive: 0.038 | inactive: -0.011 | inactive: 0.023 | inactive: 0.177 | inactive: 0.032
4 | GMPR (UniProt P36959) | inactive: -0.042 | inactive: -0.019 | inactive: 0.004 | inactive: 0.005 | inactive: -0.075 | inactive: -0.037 | inactive: 0.017 | inactive: -0.029 | inactive: -0.056 | inactive: -0.006 | inactive: 0.06 | inactive: 0.019 | inactive: -0.036 | inactive: -0.002 | inactive: 0.045 | inactive: -0.078 | inactive: 0.03 | inactive: 0.004 | inactive: -0.055 | inactive: 0.003
5 | GNPTAB (UniProt Q3T906) | inactive: 0.157 | inactive: 0.047 | inactive: 0.001 | inactive: 0.005 | inactive: 0.072 | inactive: -0.126 | inactive: -0.005 | inactive: 0.102 | inactive: 0.01 | inactive: 0.046 | inactive: 0.095 | inactive: 0.092 | inactive: -0.036 | inactive: 0.01 | inactive: 0.033 | inactive: 0.045 | inactive: -0.025 | inactive: 0.061 | inactive: 0.053 | inactive: 0.073
6 | GPI (UniProt P06744) | inactive: 0.009 | inactive: 0.004 | inactive: 0.012 | inactive: 0.011 | inactive: -0.106 | inactive: 0.024 | inactive: 0.004 | inactive: -0.017 | inactive: -0.005 | inactive: 0.033 | inactive: -0.022 | inactive: 0.032 | inactive: 0.001 | inactive: 0.012 | inactive: 0.013 | inactive: -0.015 | inactive: -0.01 | inactive: 0.022 | inactive: -0.091 | inactive: -0.005
7 | GOT2 (UniProt P00505) | inactive: -0.017 | inactive: 0.018 | inactive: 0.047 | inactive: 0.003 | inactive: -0.017 | inactive: 0.008 | inactive: -0.031 | inactive: -0.02 | inactive: -0.024 | inactive: 0.001 | inactive: 0.004 | inactive: 0.053 | inactive: -0.014 | inactive: -0.003 | inactive: 0.024 | inactive: -0.001 | inactive: -0.008 | inactive: -0.035 | inactive: -0.027 | inactive: -0.002
8 | GNPAT (UniProt O15228) | inactive: -0.03 | inactive: -0.046 | inactive: 0.007 | inactive: 0 | inactive: -0.039 | inactive: 0.023 | inactive: 0.045 | inactive: 0.03 | inactive: 0.022 | inactive: 0.044 | inactive: -0.065 | inactive: -0.149 | inactive: -0.02 | inactive: 0.04 | – | inactive: -0.066 | inactive: -0.027 | – | inactive: -0.084 | active: -0.354
9 | GMIP (UniProt Q9P107) | inactive: -0.113 | inactive: -0.099 | – | inactive: -0.021 | inactive: 0.157 | – | – | – | inactive: 0.087 | inactive: -0.068 | – | – | inactive: 0.172 | inactive: 0.066 | inactive: -0.084 | – | – | inactive: -0.057 | inactive: 0.206 | –
10 | GPS2 (UniProt Q13227) | inactive: -0.13 | inactive: -0.04 | inactive: -0.17 | inactive: -0.013 | active: -0.316 | inactive: 0.019 | inactive: -0.01 | inactive: 0.026 | inactive: -0.145 | inactive: -0.008 | inactive: 0.151 | inactive: -0.072 | inactive: 0.082 | inactive: 0.016 | – | – | inactive: 0.068 | – | – | –
11 | GNAS (UniProt Q5JWF2) | inactive: 0.105 | inactive: -0.043 | inactive: -0.014 | inactive: -0.027 | inactive: -0.01 | inactive: 0.034 | inactive: -0.027 | inactive: 0.067 | inactive: -0.036 | inactive: -0.011 | inactive: 0.125 | inactive: 0.164 | inactive: 0.032 | inactive: 0.011 | – | inactive: 0 | inactive: -0.02 | – | inactive: -0.03 | inactive: 0.057
12 | GLS (UniProt O94925) | inactive: -0.013 | inactive: -0.072 | inactive: -0.024 | inactive: 0.034 | inactive: -0.065 | inactive: 0.096 | inactive: 0.132 | inactive: 0.062 | inactive: 0.041 | inactive: 0.054 | inactive: -0.271 | active: -0.366 | inactive: 0.142 | inactive: 0.151 | – | inactive: -0.051 | inactive: 0.103 | – | inactive: -0.085 | inactive: -0.241
13 | GRN (UniProt P28799) | inactive: 0.012 | inactive: 0.052 | inactive: -0.07 | inactive: -0.007 | inactive: -0.064 | inactive: 0.019 | inactive: -0.115 | inactive: 0.035 | inactive: -0.092 | inactive: -0.112 | – | inactive: 0.179 | inactive: 0.05 | inactive: -0.034 | inactive: -0.041 | inactive: -0.154 | inactive: -0.097 | inactive: -0.002 | inactive: 0.054 | inactive: 0.14
14 | GLS isoform 3 (UniProt O94925) | inactive: 0.004 | inactive: -0.119 | inactive: -0.01 | inactive: 0.167 | inactive: 0.087 | inactive: 0.155 | inactive: 0.236 | inactive: 0.061 | inactive: 0.031 | inactive: 0.061 | inactive: -0.172 | active: -0.699 | inactive: 0.126 | inactive: 0.152 | – | inactive: -0.055 | inactive: 0.069 | – | inactive: -0.039 | inactive: -0.364
15 | GIGYF2 (UniProt Q6Y7W6) | inactive: -0.075 | inactive: 0.058 | inactive: 0.01 | inactive: 0.044 | inactive: 0.05 | inactive: 0.043 | inactive: 0.048 | inactive: 0.049 | inactive: 0.092 | inactive: 0.093 | inactive: -0.093 | active: -0.52 | inactive: 0.02 | inactive: 0 | – | inactive: -0.039 | inactive: 0.032 | – | inactive: 0.021 | active: -0.221
16 | GLMP (UniProt Q8WWB7) | inactive: -0.046 | inactive: 0.022 | inactive: -0.03 | inactive: -0.124 | inactive: 0.053 | inactive: 0 | inactive: 0.033 | inactive: 0.011 | – | – | inactive: 0.116 | inactive: -0.083 | inactive: -0.061 | inactive: -0.067 | – | – | inactive: 0.017 | – | inactive: -0.116 | –

Given comma-delimited: entries from further up
Row,Target,log2 fold change [1],log2 fold change [2],log2 fold change [3],log2 fold change [4],log2 fold change [5],log2 fold change [6],log2 fold change [7],log2 fold change [8],log2 fold change [9],log2 fold change [10],log2 fold change [11],log2 fold change [12],log2 fold change [13],log2 fold change [14],log2 fold change [15],log2 fold change [16],log2 fold change [17],log2 fold change [18],log2 fold change [19],log2 fold change [20]
6,GPI (UniProt P06744),inactive: 0.009,inactive: 0.004,inactive: 0.012,inactive: 0.011,inactive: -0.106,inactive: 0.024,inactive: 0.004,inactive: -0.017,inactive: -0.005,inactive: 0.033,inactive: -0.022,inactive: 0.032,inactive: 0.001,inactive: 0.012,inactive: 0.013,inactive: -0.015,inactive: -0.01,inactive: 0.022,inactive: -0.091,inactive: -0.005
7,GOT2 (UniProt P00505),inactive: -0.017,inactive: 0.018,inactive: 0.047,inactive: 0.003,inactive: -0.017,inactive: 0.008,inactive: -0.031,inactive: -0.02,inactive: -0.024,inactive: 0.001,inactive: 0.004,inactive: 0.053,inactive: -0.014,inactive: -0.003,inactive: 0.024,inactive: -0.001,inactive: -0.008,inactive: -0.035,inactive: -0.027,inactive: -0.002
